According to patent US20080020003A1, “Methods for the delivery of a beta2 agonist to induce bronchodilation and formulations for use in the same” (Verus Pharmaceuticals, Inc., priority 2006, published 2008):

System: patient experiencing chronic obstructive pulmonary disease (COPD)
Test: treatment of a patient experiencing COPD by nebulized inhalation mixture (paper example)
Assay type: in vivo
Conditions: Example 4: about 0.18 mg/dose, Pari eFlow, less than about 2 minutes
Description: (§1) A patient experiencing chronic obstructive pulmonary disease (COPD) initiates treatment by inducing bronchodilation. The patient induces bronchodilation by placing a dose of an inhalation mixture comprising about 0.18 mg/dose of formoterol into the reservoir of a commercially available Pari eFlow® vibrating membrane inhalation nebulizer. The delivery of the inhalation mixture by the nebulizer is then initiated.
as §1, with “0.20” for “0.18”, “albuterol sulfate” for “formoterol”, “nebulizer.” for “nebulizer. The delivery of the inhalation mixture by the nebulizer is then initiated.”

For `COc1ccc(CC(C)NCC(O)c2ccc(O)c(NC=O)c2)cc1` (stereo not shown) [formoterol], the “symptoms of COPD” value was “ameliorated or relieved”.
